Test results taken from publication doi:10.1101/354316.
Results are given in words; binding and its absence hold for the method and conditions named. In cells and extracts the contact can be indirect. These calls come from enrichment with a bait or labelling near it, and not all partners need be listed. Each block holds one molecule with its values, some of them ahead of it.

Chains of the proteins cited; added tags and fusions are not shown.
UniProt Q01968: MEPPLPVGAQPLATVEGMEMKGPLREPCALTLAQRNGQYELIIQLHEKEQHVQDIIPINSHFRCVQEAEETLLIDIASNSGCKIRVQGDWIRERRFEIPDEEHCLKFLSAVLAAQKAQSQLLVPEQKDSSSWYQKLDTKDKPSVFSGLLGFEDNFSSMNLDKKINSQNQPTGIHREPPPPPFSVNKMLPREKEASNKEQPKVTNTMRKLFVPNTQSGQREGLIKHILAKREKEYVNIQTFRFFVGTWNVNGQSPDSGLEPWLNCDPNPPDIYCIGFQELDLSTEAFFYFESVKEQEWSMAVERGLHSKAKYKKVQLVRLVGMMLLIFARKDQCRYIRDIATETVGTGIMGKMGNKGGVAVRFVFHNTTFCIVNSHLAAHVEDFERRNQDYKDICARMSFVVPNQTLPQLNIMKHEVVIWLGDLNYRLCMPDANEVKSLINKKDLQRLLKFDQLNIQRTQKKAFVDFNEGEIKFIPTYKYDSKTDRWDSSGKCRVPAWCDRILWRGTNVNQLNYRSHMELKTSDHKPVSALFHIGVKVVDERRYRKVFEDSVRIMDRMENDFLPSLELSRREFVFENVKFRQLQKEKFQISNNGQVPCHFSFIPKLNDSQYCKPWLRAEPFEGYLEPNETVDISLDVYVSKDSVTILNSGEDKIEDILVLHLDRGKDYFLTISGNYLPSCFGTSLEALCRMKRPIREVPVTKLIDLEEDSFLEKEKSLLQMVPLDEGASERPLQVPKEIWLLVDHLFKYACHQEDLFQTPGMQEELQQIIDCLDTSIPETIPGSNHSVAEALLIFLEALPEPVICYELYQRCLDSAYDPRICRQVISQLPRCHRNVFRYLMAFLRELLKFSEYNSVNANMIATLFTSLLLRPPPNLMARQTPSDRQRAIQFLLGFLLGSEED
UniProt O15085: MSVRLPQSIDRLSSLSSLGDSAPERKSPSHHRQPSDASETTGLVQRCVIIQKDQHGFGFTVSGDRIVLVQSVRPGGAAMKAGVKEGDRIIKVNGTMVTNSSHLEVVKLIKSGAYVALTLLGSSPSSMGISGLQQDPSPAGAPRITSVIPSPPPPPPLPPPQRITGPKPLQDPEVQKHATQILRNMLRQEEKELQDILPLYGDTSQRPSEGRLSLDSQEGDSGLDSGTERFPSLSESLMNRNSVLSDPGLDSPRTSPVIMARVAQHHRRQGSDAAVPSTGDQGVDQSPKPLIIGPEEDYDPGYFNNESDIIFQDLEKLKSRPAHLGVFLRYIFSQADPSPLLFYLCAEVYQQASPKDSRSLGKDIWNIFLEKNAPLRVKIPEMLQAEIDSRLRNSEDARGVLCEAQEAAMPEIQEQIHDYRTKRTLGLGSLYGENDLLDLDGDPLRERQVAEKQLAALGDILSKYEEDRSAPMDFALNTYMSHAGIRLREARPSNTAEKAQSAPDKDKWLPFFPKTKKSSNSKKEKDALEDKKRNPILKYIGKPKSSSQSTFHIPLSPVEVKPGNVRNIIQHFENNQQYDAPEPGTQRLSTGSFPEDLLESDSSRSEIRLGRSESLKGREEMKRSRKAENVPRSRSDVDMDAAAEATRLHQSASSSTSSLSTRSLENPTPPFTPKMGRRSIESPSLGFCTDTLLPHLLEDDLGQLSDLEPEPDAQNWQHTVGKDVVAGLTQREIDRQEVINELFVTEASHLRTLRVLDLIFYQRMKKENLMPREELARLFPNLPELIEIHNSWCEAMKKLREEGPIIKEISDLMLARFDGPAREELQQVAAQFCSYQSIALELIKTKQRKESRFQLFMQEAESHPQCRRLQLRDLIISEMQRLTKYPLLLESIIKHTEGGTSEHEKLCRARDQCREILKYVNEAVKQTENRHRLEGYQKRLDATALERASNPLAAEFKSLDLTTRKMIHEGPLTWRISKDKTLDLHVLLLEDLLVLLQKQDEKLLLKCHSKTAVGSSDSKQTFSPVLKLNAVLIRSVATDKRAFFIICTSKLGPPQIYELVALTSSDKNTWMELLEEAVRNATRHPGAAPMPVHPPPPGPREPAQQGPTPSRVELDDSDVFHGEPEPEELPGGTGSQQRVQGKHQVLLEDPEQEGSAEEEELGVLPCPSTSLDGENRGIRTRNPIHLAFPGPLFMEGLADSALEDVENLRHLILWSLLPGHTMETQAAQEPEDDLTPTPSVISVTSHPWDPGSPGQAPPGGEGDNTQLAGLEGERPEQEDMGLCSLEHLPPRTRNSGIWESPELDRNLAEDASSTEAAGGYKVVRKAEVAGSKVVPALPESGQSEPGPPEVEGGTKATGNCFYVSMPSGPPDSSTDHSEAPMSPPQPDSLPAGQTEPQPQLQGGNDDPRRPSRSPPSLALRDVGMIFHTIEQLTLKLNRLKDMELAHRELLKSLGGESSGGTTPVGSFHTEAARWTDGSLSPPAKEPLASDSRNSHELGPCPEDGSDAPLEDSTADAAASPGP
UniProt Q9NZN5: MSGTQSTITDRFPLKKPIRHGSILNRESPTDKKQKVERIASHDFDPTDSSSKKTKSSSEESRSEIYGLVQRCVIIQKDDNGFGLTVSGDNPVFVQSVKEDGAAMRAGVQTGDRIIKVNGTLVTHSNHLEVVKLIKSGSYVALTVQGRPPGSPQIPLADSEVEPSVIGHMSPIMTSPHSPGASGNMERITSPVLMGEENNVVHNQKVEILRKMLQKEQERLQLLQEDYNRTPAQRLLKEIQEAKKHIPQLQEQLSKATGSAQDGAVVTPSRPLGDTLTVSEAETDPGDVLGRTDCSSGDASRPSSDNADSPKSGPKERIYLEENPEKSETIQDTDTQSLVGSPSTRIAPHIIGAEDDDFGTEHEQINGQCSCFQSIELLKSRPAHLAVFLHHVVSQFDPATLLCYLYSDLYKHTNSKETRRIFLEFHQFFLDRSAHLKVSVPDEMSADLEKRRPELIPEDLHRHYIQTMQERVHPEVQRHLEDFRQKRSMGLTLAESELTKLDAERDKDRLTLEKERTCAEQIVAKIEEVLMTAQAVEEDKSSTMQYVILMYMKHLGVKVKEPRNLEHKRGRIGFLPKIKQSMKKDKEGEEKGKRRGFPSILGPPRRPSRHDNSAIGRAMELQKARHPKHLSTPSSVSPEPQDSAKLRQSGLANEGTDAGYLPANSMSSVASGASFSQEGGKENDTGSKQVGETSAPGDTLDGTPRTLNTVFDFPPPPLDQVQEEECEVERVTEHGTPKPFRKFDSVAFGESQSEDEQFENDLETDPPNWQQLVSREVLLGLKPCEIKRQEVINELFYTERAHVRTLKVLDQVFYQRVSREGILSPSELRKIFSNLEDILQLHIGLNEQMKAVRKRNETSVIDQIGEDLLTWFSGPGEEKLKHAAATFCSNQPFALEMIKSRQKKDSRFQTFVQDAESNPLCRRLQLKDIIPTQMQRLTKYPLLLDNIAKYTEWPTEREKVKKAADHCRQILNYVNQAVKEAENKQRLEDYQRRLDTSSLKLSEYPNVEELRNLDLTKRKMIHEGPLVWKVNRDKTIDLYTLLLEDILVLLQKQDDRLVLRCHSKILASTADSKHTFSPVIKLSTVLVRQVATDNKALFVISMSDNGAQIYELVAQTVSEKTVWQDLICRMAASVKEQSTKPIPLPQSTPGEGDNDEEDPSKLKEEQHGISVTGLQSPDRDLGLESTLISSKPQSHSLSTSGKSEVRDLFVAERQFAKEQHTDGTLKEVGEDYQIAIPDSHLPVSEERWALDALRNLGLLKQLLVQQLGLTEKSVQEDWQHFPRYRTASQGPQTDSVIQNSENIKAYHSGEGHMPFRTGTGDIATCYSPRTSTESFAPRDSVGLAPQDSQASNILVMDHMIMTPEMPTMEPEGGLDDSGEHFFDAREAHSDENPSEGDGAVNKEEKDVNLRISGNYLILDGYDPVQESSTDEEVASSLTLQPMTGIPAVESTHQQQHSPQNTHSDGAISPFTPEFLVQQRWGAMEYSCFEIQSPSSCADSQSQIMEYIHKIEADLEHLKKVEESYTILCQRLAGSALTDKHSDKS
UniProt P32019: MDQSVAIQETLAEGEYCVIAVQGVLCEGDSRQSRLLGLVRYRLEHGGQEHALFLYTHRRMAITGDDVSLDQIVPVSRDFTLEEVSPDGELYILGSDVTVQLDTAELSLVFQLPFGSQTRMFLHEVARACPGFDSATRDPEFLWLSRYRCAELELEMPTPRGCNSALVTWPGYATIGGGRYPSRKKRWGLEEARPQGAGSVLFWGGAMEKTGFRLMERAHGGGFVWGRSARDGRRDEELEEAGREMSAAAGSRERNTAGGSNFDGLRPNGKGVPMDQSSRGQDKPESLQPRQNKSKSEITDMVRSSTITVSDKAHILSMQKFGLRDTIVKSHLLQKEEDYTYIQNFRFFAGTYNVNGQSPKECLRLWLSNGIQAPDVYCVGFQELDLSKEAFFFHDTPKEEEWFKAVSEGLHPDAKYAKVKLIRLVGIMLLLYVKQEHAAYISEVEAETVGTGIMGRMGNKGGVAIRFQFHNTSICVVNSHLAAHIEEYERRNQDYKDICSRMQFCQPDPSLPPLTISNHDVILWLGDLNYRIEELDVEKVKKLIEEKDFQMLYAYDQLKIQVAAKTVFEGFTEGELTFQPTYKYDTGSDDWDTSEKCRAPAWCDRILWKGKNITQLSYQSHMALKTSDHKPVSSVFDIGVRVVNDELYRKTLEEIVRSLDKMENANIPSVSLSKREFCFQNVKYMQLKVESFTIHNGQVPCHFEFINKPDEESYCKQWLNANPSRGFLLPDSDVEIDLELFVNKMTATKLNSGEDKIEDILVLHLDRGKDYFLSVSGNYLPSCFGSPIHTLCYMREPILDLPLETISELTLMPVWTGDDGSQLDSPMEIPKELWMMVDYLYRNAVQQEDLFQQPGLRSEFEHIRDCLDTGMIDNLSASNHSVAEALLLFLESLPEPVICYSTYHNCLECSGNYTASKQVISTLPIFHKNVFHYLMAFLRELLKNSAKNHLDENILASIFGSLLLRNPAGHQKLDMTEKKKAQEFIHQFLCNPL
UniProt Q96PX9: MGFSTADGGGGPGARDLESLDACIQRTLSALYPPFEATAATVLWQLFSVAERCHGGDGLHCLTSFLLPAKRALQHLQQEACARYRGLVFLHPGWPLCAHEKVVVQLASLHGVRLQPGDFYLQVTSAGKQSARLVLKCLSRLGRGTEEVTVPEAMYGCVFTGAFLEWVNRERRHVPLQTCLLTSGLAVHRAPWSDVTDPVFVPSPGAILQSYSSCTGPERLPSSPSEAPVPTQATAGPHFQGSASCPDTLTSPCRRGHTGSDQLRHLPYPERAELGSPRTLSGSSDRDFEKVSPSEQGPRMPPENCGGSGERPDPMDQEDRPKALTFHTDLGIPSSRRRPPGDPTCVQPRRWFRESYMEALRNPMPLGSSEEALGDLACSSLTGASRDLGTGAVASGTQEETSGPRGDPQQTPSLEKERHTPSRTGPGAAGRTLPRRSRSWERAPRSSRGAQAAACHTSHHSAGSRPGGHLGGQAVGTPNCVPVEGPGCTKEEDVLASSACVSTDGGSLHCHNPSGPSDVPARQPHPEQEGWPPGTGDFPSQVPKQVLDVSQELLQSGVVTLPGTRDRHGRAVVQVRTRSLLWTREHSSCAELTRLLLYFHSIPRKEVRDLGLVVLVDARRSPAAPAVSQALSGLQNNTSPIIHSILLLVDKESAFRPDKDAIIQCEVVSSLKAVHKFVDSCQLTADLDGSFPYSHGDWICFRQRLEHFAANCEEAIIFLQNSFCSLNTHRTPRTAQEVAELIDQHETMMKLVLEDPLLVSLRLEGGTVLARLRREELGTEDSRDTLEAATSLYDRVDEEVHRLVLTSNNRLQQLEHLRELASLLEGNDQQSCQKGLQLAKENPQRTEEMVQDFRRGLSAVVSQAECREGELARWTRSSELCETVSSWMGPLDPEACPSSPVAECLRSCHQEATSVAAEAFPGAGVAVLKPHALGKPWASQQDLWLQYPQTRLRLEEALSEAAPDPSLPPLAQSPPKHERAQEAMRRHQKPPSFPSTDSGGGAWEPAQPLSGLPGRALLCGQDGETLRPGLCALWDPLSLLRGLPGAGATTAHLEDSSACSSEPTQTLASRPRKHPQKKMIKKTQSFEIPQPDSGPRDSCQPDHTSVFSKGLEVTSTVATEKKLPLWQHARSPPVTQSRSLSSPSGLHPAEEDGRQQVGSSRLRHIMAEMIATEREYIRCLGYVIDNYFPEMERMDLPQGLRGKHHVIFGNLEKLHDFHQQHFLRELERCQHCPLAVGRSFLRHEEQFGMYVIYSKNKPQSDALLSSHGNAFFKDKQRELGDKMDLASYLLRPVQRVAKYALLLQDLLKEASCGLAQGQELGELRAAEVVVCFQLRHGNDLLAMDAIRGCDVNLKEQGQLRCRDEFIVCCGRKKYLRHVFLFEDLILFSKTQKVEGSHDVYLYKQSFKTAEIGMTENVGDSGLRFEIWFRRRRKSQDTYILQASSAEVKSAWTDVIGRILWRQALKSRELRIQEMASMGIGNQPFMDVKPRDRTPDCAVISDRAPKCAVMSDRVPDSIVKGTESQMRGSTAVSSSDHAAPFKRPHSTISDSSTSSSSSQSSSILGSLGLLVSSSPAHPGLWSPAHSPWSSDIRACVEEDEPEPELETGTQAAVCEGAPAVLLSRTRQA

Experiments:
Test in all cases: affinity purification with mass spectrometry
[1] = molecular target: OCRL (not stated (library cDNAs: human, mouse, rat or chimpanzee; Table S1)) (UniProt Q01968)
[2] = molecular target: ARHGEF11 (interactome screen) (human) (UniProt O15085)
[3] = molecular target: ARHGEF12 (interactome screen) (human) (UniProt Q9NZN5)
[4] = molecular target: T1, ARHGEF39 (not stated (library cDNAs: human, mouse, rat or chimpanzee; Table S1)) (UniProt Q8N4T4)
T1 sequence: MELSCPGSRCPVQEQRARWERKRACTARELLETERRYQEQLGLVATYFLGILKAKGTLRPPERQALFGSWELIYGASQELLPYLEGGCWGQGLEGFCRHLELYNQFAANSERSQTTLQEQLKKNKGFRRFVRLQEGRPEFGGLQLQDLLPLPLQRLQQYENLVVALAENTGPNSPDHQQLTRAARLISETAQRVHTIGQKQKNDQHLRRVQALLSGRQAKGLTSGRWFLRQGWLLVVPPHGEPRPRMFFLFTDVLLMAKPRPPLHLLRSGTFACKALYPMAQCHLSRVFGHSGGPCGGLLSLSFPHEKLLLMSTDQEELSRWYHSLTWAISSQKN

[5] = molecular target: T2, ARHGAP44 (not stated (library cDNAs: human, mouse, rat or chimpanzee; Table S1)) (UniProt Q17R89)
T2 sequence: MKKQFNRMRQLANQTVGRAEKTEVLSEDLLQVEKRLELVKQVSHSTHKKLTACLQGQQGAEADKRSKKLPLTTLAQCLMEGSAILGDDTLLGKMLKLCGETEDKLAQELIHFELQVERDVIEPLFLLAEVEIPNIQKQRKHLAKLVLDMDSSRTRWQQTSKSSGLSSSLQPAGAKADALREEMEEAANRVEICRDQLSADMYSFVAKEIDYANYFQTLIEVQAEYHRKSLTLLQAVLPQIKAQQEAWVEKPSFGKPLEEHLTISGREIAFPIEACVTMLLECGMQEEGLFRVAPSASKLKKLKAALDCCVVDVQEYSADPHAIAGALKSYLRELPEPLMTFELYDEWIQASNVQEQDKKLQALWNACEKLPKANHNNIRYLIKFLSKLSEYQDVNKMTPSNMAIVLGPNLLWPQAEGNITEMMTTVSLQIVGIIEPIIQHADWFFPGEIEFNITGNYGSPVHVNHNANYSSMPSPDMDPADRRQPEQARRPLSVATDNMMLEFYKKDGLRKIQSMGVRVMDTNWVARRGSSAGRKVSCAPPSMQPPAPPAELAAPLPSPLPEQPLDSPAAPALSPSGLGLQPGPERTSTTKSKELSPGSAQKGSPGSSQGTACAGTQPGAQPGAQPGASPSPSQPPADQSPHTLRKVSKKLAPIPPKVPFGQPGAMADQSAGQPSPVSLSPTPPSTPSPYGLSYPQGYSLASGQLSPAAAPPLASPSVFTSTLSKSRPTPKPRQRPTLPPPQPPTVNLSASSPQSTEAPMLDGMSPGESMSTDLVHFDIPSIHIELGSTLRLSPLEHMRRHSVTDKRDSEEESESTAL

Molecule: INPP5B (from UniProt P32019 1-993)
binding [1]: binds

B1: BCR (protein, UniProt P11274 1-1271)
chain: MVDPVGFAEAWKAQFPDSEPPRMELRSVGDIEQELERCKASIRRLEQEVNQERFRMIYLQTLLAKEKKSYDRQRWGFRRAAQAPDGASEPRASASRPQPAPADGADPPPAEEPEARPDGEGSPGKARPGTARRPGAAASGERDDRGPPASVAALRSNFERIRKGHGQPGADAEKPFYVNVEFHHERGLVKVNDKEVSDRISSLGSQAMQMERKKSQHGAGSSVGDASRPPYRGRSSESSCGVDGDYEDAELNPRFLKDNLIDANGGSRPPWPPLEYQPYQSIYVGGMMEGEGKGPLLRSQSTSEQEKRLTWPRRSYSPRSFEDCGGGYTPDCSSNENLTSSEEDFSSGQSSRVSPSPTTYRMFRDKSRSPSQNSQQSFDSSSPPTPQCHKRHRHCPVVVSEATIVGVRKTGQIWPNDGEGAFHGDADGSFGTPPGYGCAADRAEEQRRHQDGLPYIDDSPSSSPHLSSKGRGSRDALVSGALESTKASELDLEKGLEMRKWVLSGILASEETYLSHLEALLLPMKPLKAAATTSQPVLTSQQIETIFFKVPELYEIHKEFYDGLFPRVQQWSHQQRVGDLFQKLASQLGVYRAFVDNYGVAMEMAEKCCQANAQFAEISENLRARSNKDAKDPTTKNSLETLLYKPVDRVTRSTLVLHDLLKHTPASHPDHPLLQDALRISQNFLSSINEEITPRRQSMTVKKGEHRQLLKDSFMVELVEGARKLRHVFLFTDLLLCTKLKKQSGGKTQQYDCKWYIPLTDLSFQMVDELEAVPNIPLVPDEELDALKIKISQIKNDIQREKRANKGSKATERLKKKLSEQESLLLLMSPSMAFRVHSRNGKSYTFLISSDYERAEWRENIREQQKKCFRSFSLTSVELQMLTNSCVKLQTVHSIPLTINKEDDESPGLYGFLNVIVHSATGFKQSSNLYCTLEVDSFGYFVNKAKTRVYRDTAEPNWNEEFEIELEGSQTLRILCYEKCYNKTKIPKEDGESTDRLMGKGQVQLDPQALQDRDWQRTVIAMNGIEVKLSVKFNSREFSLKRMPSRKQTGVFGVKIAVVTKRERSKVPYIVRQCVEEIERRGMEEVGIYRVSGVATDIQALKAAFDVNNKDVSVMMSEMDVNAIAGTLKLYFRELPEPLFTDEFYPNFAEGIALSDPVAKESCMLNLLLSLPEANLLTFLFLLDHLKRVAEKEAVNKMSLHNLATVFGPTLLRPSEKESKLPANPSQPITMTDSWSLEVMSQVQVLLYFLQLEAIPAPDSKRQSILFSTEV
binding [4]: binds

The next lines start with the values.

binding [2]: binds | binding [3]: binds
Molecule: PLEKHG4B (interactome screen) (from UniProt Q96PX9 1-1627)

binding [5]: binds
B2: ARHGAP17 (protein, UniProt Q68EM7 1-881)
chain: MKKQFNRMKQLANQTVGRAEKTEVLSEDLLQIERRLDTVRSICHHSHKRLVACFQGQHGTDAERRHKKLPLTALAQNMQEASTQLEDSLLGKMLETCGDAENQLALELSQHEVFVEKEIVDPLYGIAEVEIPNIQKQRKQLARLVLDWDSVRARWNQAHKSSGTNFQGLPSKIDTLKEEMDEAGNKVEQCKDQLAADMYNFMAKEGEYGKFFVTLLEAQADYHRKALAVLEKTLPEMRAHQDKWAEKPAFGTPLEEHLKRSGREIALPIEACVMLLLETGMKEEGLFRIGAGASKLKKLKAALDCSTSHLDEFYSDPHAVAGALKSYLRELPEPLMTFNLYEEWTQVASVQDQDKKLQDLWRTCQKLPPQNFVNFRYLIKFLAKLAQTSDVNKMTPSNIAIVLGPNLLWARNEGTLAEMAAATSVHVVAVIEPIIQHADWFFPEEVEFNVSEAFVPLTTPSSNHSFHTGNDSDSGTLERKRPASMAVMEGDLVKKESFGVKLMDFQAHRRGGTLNRKHISPAFQPPLPPTDGSTVVPAGPEPPPQSSRAESSSGGGTVPSSAGILEQGPSPGDGSPPKPKDPVSAAVPAPGRNNSQIASGQNQPQAAAGSHQLSMGQPHNAAGPSPHTLRRAVKKPAPAPPKPGNPPPGHPGGQSSSGTSQHPPSLSPKPPTRSPSPPTQHTGQPPGQPSAPSQLSAPRRYSSSLSPIQAPNHPPPQPPTQATPLMHTKPNSQGPPNPMALPSEHGLEQPSHTPPQTPTPPSTPPLGKQNPSLPAPQTLAGGNPETAQPHAGTLPRPRPVPKPRNRPSVPPPPQPPGVHSAGDSSLTNTAPTASKIVTDSNSRVSEPHRSIFPEMHSDSASKDVPGRILLDIDNDTESTAL
